In assay [1] the target is T1, USP37 (endogenous, Huh7) (human (endogenous in Huh7)) (UniProt Q86T82).
T1 sequence: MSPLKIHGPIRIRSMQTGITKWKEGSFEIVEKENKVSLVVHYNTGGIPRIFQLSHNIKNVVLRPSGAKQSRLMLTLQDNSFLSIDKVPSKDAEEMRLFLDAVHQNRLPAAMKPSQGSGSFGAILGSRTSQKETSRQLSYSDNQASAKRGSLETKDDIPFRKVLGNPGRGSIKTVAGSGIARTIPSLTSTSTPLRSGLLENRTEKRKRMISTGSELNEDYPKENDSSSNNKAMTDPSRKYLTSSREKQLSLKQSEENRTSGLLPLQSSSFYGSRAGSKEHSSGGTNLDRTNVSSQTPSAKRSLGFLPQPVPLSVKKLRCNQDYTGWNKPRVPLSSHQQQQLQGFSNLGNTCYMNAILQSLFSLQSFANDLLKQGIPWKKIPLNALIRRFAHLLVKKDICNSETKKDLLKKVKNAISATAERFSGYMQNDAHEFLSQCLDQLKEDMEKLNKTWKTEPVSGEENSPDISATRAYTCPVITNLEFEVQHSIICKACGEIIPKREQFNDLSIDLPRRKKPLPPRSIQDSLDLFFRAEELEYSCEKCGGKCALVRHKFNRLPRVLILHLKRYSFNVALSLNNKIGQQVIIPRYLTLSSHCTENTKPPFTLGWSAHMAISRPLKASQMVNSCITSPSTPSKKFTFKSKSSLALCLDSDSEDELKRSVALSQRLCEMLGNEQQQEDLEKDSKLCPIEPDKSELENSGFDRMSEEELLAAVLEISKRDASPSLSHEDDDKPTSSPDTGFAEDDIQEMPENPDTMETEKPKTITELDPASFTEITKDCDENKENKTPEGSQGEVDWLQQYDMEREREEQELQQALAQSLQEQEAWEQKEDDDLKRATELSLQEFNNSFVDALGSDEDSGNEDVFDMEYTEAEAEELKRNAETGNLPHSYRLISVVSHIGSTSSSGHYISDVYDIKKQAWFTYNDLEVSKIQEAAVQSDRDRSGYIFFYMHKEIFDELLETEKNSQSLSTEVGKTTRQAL
The assay can be described thus: co-IP; USP37 immunoprecipitated from lysate of Huh7 cells transfected with vector or HA-HBx; blotted with USP37 and HBx antibody.

The chains behind the UniProt entries cited, without tags or fusion partners.
UniProt P03165: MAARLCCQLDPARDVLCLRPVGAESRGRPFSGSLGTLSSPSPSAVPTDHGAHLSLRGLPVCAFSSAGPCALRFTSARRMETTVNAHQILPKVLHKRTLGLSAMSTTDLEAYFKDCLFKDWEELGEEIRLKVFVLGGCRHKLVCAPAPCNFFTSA

The next assay has as its target T2, Flag-USP37 (UniProt Q86T82).
T2 sequence: T1 sequence
The assay can be described thus: co-IP; cells co-transfected with Flag-USP37 and HBx; HBx co-precipitated by Flag-tagged USP37.

Results are given in words; binding and its absence hold for the method and conditions named. Binding seen in cells or lysates may run through a third protein. Some entries that bind do so weakly or less than the wild type. For some assays here: Where a sequence is shown, tags or fusion partners need not be part of it.

As to HA-HBx (from UniProt P03165 1-154), the binding entry in assay [1] is on record as “binds”.
As for “HBx (co-transfected with Flag-USP37, construct not named) (from UniProt P03165 1-154)”, the binding result in the assay with Flag-USP37 is recorded as “binds”.

The record behind these values is PMC4210131.
